PubChem BioAssay AID1259308 | NCATS – 2017
Shown is a random part of about 59,000 deposited reagents. About 1,510 of all reagents (2.6%) count as active. 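Calls use total luciferase alone and ignore viability, so some active siRNAs may act by altering cell number.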 Unmarked entries are inactive. The numbers tell different reagents against one gene apart. Not all columns of the deposit are shown.

Aim: 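Knock-downs that increase output of a recombinant reporter protein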 (primary screen)
System: human HEK293 embryonic kidney cells stably expressing firefly luciferase (HEK-CMV-Luc2-Hygro)
Reagent: single siRNA against human genes, 0.8 pmol siRNA per well
Timing: 72 h
Read-out: 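Luciferase light (ONE-Glo) measured on one replicate plate set and viability (CellTiter-Glo) on the other, scaled to a negative control siRNA, with robust z-scores and luciferase per cell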
Scale: total luciferase, z-score: higher = more reporter protein produced
Call rule: 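Active when the median/MAD z-score for overall luciferase is greater than 3; a gene was taken forward for validation with new siRNAs if at least two of its three siRNAs passed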
Calls: active = raised luciferase; inactive = no rise

total luciferase, z-score, by gene and reagent
GPR108 (G protein-coupled receptor 108): #1 1.43; #2 0.777; #3 0.238
NDUFS1 (NADH:ubiquinone oxidoreductase core subunit S1): #1 0.018; #2 0.248; #3 2.49
THAP7 (THAP domain containing 7): #1 -1.17; #2 -1.83; #3 -1.57
DEPDC7 (DEP domain containing 7): #1 -0.928; #2 0.103; #3 -0.586
HMBS (hydroxymethylbilane synthase): #1 -0.943; #2 0.0821; #3 0.142
LINC00469 (long independently transcribed non-coding RNA 469): #1 0.151; #2 -0.451; #3 0.0415
CMIP (c-Maf inducing protein): #1 2.76; #2 3.29 (active); #3 1.2
ACVRL1 (activin A receptor like type 1): #1 -1.41; #2 -0.776; #3 0.021
HS3ST1 (heparan sulfate-glucosamine 3-sulfotransferase 1): #1 0.0509; #2 -0.488; #3 -0.0227
RAB31 (RAB31, member RAS oncogene family): #1 -0.406; #2 4.03 (active); #3 5.59 (active)
PLA2G4F (phospholipase A2 group IVF): #1 -0.534; #2 -0.205; #3 0.973
UBXN8 (UBX domain protein 8): #1 -0.162; #2 0.046; #3 0.297
SDHCP5 (SDHC pseudogene 5): #1 2.03; #2 0.619; #3 1.19
TGDS (TDP-glucose 4,6-dehydratase): #1 0.182; #2 1.47; #3 -1.56
SLC25A23: #1 3.2 (active); #2 1.96; #3 -0.589
YEATS4 (YEATS domain containing 4): #1 1.36; #2 0.36; #3 0.336
COX4I1 (cytochrome c oxidase subunit 4I1): #1 1.43; #2 -1; #3 0.397
ZNF713 (zinc finger protein 713): #1 0.137; #2 -1.12; #3 -0.687
CYB5R5 (cytochrome b5 reductase 5 (putative)): #1 2.95; #2 0.558; #3 -1.36
MTTP (microsomal triglyceride transfer protein): #1 0.821; #2 0.51; #3 -0.737
RNFT2 (ring finger protein, transmembrane 2): #1 -0.368; #2 0.607; #3 -0.884
ARHGEF40 (Rho guanine nucleotide exchange factor 40): #1 1.57; #2 -1.22; #3 0.535
HS3ST6 (heparan sulfate-glucosamine 3-sulfotransferase 6): #1 -1.73; #2 0.829; #3 -0.862
IFNLR1 (interferon lambda receptor 1): #1 1.08; #2 -0.628; #3 0.457
CCDC40 (coiled-coil domain 40 molecular ruler complex subunit): #1 -0.265; #2 1.67; #3 -0.789

Copied from the list:
Under “total luciferase, z-score”, ZNF713 (zinc finger protein 713) #2 shows -1.12
ZNF713 (zinc finger protein 713) #3, total luciferase, z-score → -0.687
Under “total luciferase, z-score”, YEATS4 (YEATS domain containing 4) #1 has 1.36
Result of CMIP (c-Maf inducing protein) #3 under “total luciferase, z-score”: 1.2
